# In article PMC8092259:
# By UniProt entry, the sequences of proteins in these tests, tags left out.
# UniProt Q14258: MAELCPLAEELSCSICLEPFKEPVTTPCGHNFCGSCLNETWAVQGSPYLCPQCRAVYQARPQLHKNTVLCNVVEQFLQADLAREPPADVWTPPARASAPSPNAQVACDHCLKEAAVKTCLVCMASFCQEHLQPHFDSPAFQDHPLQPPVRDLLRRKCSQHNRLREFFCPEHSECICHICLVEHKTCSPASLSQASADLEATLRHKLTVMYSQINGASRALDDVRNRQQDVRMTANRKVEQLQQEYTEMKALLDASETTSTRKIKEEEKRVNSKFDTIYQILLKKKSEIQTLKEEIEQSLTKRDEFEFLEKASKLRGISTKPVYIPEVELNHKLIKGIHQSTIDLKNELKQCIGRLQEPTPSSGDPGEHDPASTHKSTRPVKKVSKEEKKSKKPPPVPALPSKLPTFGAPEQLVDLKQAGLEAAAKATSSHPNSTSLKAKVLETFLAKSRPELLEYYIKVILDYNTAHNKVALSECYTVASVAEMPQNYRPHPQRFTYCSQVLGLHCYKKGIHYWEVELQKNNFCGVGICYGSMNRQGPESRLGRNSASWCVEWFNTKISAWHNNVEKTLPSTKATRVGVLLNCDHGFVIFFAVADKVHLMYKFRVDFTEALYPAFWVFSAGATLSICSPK
# These are yes or no findings as the source states them, for the method shown. Binding seen in cells or lysates may run through a third protein. Sequences can lack the tags named with a protein.
# Target: T1, FLAG-tagged JCV large T antigen (TAg) (JC virus (JCV)) (UniProt P03072)
# T1 sequence: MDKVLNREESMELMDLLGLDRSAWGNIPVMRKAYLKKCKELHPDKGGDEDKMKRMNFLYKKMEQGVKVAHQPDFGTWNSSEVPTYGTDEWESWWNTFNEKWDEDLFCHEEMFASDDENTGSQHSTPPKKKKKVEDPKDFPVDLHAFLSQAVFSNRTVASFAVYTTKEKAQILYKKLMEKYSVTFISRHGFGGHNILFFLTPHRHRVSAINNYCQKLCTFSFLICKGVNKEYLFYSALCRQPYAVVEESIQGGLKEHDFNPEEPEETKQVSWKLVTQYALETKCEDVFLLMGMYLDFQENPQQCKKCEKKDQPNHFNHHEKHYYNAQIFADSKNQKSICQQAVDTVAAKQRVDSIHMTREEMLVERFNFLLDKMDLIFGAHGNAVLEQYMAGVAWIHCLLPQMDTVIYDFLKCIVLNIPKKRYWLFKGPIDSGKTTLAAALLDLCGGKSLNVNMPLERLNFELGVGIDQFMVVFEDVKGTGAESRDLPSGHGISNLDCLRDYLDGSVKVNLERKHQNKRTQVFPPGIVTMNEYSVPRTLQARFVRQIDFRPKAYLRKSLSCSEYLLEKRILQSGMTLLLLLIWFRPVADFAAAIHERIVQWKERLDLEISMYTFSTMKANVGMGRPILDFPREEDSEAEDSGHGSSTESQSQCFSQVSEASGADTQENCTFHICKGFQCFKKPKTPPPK
# Experiment: co-IP
substance,measurement,value
endogenous TRIM25 (HEK 293T cells) (from UniProt Q14258 1-630),binding,no binding
